Data: article PMC12670160, “A drug-repurposing screen of FDA- and EMA-approved drugs identifies two NF-κB inhibitors active against eumycetoma” (Journal of Antimicrobial Chemotherapy, 2025)
Structures can show the parent of a compound that is named as a salt. About 130 (2.5%) of roughly 5,300 compounds showed an effect of 50% or more. This is one part of the list. Peptide text beside a SMILES is read from it.

tested on: M. mycetomatis strain mm55; details: primary screen, metabolic activity vs growth control; 96 h, 2 µM; inhibitor

SMILES	% viability [%]
C#Cc1cccc(Nc2ncnc3cc(OCCOC)c(OCCO)cc23)c1 [ONC0004975, osi420 desmethyl erlotinib]	96.97
Cn1cnc2c(F)c(Nc3ccc(Br)cc3F)c(C(=O)NOCCO)cc21 [ONC0004543, binimetinib mek162 arry162 arry438162]	60.57
COC(=O)/C=C/C(=O)OCCN1C(=O)CCC1=O [ONC0002732, 225dioxopyrrolidin1ylethyl methyl fumarate]	105.7
C[C@@H](O)[C@H](N)C(=O)N1CCC[C@H]1C(=O)N1CCC[C@H]1C(=O)N[C@H](C(N)=O)[C@@H](C)O [ONC0002215, rapastinel trifluoroacetate] (H-TPPT-NH2)	53.54
Cn1ncc2c(N3CCOCC3)nc(-c3cccc(O)c3)nc21 [ONC0000011, etp45658]	67.7
COc1c(-c2ccc3cc(NS(C)(=O)=O)ccc3c2)cc(-n2ccc(=O)[nH]c2=O)cc1C(C)(C)C [ONC0001775, dasabuvir]	79.59
NC(=O)c1cccc(-c2cccc(OC(=O)NC3CCCCC3)c2)c1 [ONC0005267, urb597]	122.4
CN(C(=O)Cc1ccc(Cl)c(Cl)c1)[C@H](CN1CCCC1)c1ccccc1 [ONC0003103, ici199441]	75.24
COC[C@H]1OC(=O)c2coc3c2[C@@]1(C)C1=C(C3=O)[C@@H]2CCC(=O)[C@@]2(C)C[C@H]1OC(C)=O [ONC0004466, wortmannin]	136.8
Cc1[nH]c(=O)c(C#N)cc1-c1ccc2nccn2c1 [ONC0001186, olprinone hydrochloride]	91.75
NCCCCCc1c[nH]cn1 [ONC0000200, impentamine]	65.77
CC(=O)O[C@H]1C(=O)[C@@]2(C)[C@H]([C@H](OC(=O)c3ccccc3)[C@]3(O)C[C@H](OC(=O)[C@H](O)[C@@H](NC(=O)c4ccccc4)c4ccccc4)C(C)=C1C3(C)C)[C@]1(OC(C)=O)CO[C@@H]1C[C@@H]2O [ONC0000820, paclitaxel]	69.97
CNCCc1ccc(O)c(O)c1 [ONC0001999, nmethyldopaminehcl]	94.89
CCOc1ccc(-n2c(C(C)N(Cc3cccnc3)C(=O)Cc3ccc(OC(F)(F)F)cc3)nc3ncccc3c2=O)cc1 (centres unmarked) [ONC0001754, amg487]	68.56
COC(=O)C[C@](O)(CCCC(C)(C)O)C(=O)O[C@@H]1C(OC)=C[C@]23CCCN2CCc2cc4c(cc2[C@H]13)OCO4 [ONC0001577, homoharringtonine]	108.7
O[C@H]1[C@H](O)[C@@H](O)[C@H](O)[C@@H](O)[C@H]1O [ONC0000427, inositol]	57.73
CCCN(CCC)CCc1cccc2c1CC(=O)N2 [ONC0004519, ropinirole hcl]	61.14
C=C(C)[C@@H]1CC[C@]2(CO)CC[C@]3(C)[C@H](CC[C@@H]4[C@@]5(C)CC[C@H](O)C(C)(C)[C@@H]5CC[C@]43C)[C@@H]12 [ONC0003471, betulin]	84.11

An excerpt of these results, as labelled records.
CCOc1ccc(-n2c(C(C)N(Cc3cccnc3)C(=O)Cc3ccc(OC(F)(F)F)cc3)nc3ncccc3c2=O)cc1 (centres unmarked) [ONC0001754, amg487]
  % viability [%]: 68.56
COC(=O)C[C@](O)(CCCC(C)(C)O)C(=O)O[C@@H]1C(OC)=C[C@]23CCCN2CCc2cc4c(cc2[C@H]13)OCO4 [ONC0001577, homoharringtonine]
  % viability [%]: 108.7

Continued.

SMILES	% viability [%]
COc1cccc2c1C(=O)c1c(O)c3c(c(O)c1C2=O)C[C@@](O)(C(=O)CO)C[C@@H]3O[C@H]1C[C@H](N)[C@@H](O)[C@H](C)O1 [ONC0004636, epirubicin hydrochloride]	92.65
CCOCOC[C@H](C[C@H](C)C(=O)NO)NC(=O)c1ccc(Oc2ccccc2)cc1 [ONC0001635, ono4817]	89.13
CC(C)Nc1cccnc1N1CCN(C(=O)c2cc3cc(NS(C)(=O)=O)ccc3[nH]2)CC1 [ONC0001146, delavirdine mesylate]	93.77
COC(=O)C1=CO[C@@H](O[C@@H]2O[C@H](CO)[C@@H](O)[C@H](O)[C@H]2O)[C@@H]2C(CO)=CC[C@H]12 [ONC0004967, geniposide]	114.1
OC(CN1CCNCC1)Cn1c2ccc(Br)cc2c2cc(Br)ccc21 (centres unmarked) [ONC0000234, baxchannelblocker]	89.77
COc1ccc(Cn2ccc3ccc(C(=O)NO)cc32)cc1 [ONC0004796, pci34051]	84.92
C#Cc1cccc(Nc2ncnc3cc(OCCOC)c(OCCOC)cc23)c1 [ONC0004502, erlotinibosi744]	72.87
N[C@@H](C(=O)N[C@@H]1C(=O)N2C(C(=O)O)=C(Cl)CC[C@H]12)c1ccccc1 [ONC0004194, loracarbef]	85.4
COc1ccccc1OC(=O)CNC(=O)Cc1ccc(C(=O)c2ccc(C)cc2)n1C [ONC0005319, amtolmetinguacil]	119.3
Cc1nnc(C(C)C)n1[C@@H]1C[C@H]2CC[C@@H](C1)N2CC[C@H](NC(=O)C1CCC(F)(F)CC1)c1ccccc1 [ONC0004641, maraviroc]	78.39
NC(=O)c1cnc(N[C@@H]2CCCC[C@@H]2N)nc1Nc1cccc(-n2nccn2)c1 [ONC0004537, prt062607 p50515 prt2607 biib057 hcl]	79.25
CCC1OC(=O)CC(O)C(C)C(OC2OC(C)CC(N(C)C)C2O)C(CC=O)CC(C)C(=O)/C=C/C2(C)OC2C1C (centres unmarked) [ONC0003863, rosamicin]	58.59
CN[C@@H]1[C@H](O)[C@H](NC)[C@H]2O[C@@]3(O)C(=O)C[C@@H](C)O[C@H]3O[C@@H]2[C@H]1O [ONC0000602, spectinomycin hydrochloride]	88.5
COCC(O)Cn1ccnc1[N+](=O)[O-] (centres unmarked) [ONC0005623, misonidazole]	105.3
NS(=O)(=O)c1cc2c(cc1Cl)NC(C(Cl)Cl)NS2(=O)=O (centres unmarked) [ONC0003174, trichlormethiazide]	103.4
CCCCCCCCCCCCCCCCCCCCCCO [ONC0004037, docosanol]	81.2
O=C(O)C=C1NN(Cc2nc3cc(C(F)(F)F)ccc3s2)C(=O)c2ccccc21 [ONC0005526, zopolrestat]	123.5
